No constants are given. Whether binding was seen depends on the method and setting. For some assays here: In cells and extracts the contact can be indirect. Some entries that bind do so weakly or less than the wild type. Tags and fused reporters may be left off the sequences shown.

In experiment [1] the target is HA-SMAD2, Q15796. Description: Flag pull-down from HEK293T cells, western blot (FIG. 9A, 9B). The following applies: remark: other sources report otherwise. For orientation: In western blotting, separated proteins are transferred to a membrane and probed.
The target in experiment [2] is T1, Flag-SMAD4, Q13485.
T1 chain: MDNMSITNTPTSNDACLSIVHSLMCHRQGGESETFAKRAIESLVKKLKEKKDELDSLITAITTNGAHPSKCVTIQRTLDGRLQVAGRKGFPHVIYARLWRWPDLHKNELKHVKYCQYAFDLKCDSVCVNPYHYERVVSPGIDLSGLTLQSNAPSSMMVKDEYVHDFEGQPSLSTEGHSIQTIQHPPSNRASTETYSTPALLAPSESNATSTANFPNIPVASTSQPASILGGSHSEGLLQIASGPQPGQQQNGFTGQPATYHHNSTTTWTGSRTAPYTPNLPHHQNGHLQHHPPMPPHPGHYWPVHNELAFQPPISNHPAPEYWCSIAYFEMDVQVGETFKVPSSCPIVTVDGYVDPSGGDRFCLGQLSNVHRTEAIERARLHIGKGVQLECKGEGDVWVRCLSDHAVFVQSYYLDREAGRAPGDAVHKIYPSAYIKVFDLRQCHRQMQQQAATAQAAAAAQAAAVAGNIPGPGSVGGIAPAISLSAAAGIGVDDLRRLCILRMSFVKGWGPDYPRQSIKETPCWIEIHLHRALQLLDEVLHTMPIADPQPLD
Description: protein pull down assay, HEK293T cells (FIG. 9A). The conditions noted are these: remark: other sources report otherwise.

B1: Flag-SMAD4, Q13485 1-552 (protein, UniProt Q13485 1-552, looked up, not shown: small tags and cut ends)
chain: T1 chain
For the molecule B1, the binding entry in experiment [1] is reported as “binds”.

B2: HA-SMAD2, Q15796 1-467 (protein, UniProt Q15796 1-467, looked up, not shown: small tags and cut ends)
chain: MSSILPFTPPVVKRLLGWKKSAGGSGGAGGGEQNGQEEKWCEKAVKSLVKKLKKTGRLDELEKAITTQNCNTKCVTIPSTCSEIWGLSTPNTIDQWDTTGLYSFSEQTRSLDGRLQVSHRKGLPHVIYCRLWRWPDLHSHHELKAIENCEYAFNLKKDEVCVNPYHYQRVETPVLPPVLVPRHTEILTELPPLDDYTHSIPENTNFPAGIEPQSNYIPETPPPGYISEDGETSDQQLNQSMDTGSPAELSPTTLSPVNHSLDLQPVTYSEPAFWCSIAYYELNQRVGETFHASQPSLTVDGFTDPSNSERFCLGLLSNVNRNATVEMTRRHIGRGVRLYYIGGEVFAECLSDSAIFVQSPNCNQRYGWHPATVCKIPPGCNLKIFNNQEFAALLAQSVNQGFEAVYQLTRMCTIRMSFVKGWGAEYRRQTVTSTPCWIELHLNGPLQWLDKVLTQMGSPSVRCSSMS
As for B2, the binding entry in experiment [2] was “binds”.
